From patent US20230293457A1, “APPLICATION OF […] C[…]” (SHANGHAITECH UNIVERSITY, priority 2020, published 2023)
At least one structure is not confirmed: it was looked up by name or label, or the drawing left a doubt.

Test system: SARS-CoV-2
Assay: In-vitro cell antiviral experiment, qRT-PCR detection in Vero cells
Details: 10 μM disulfiram, MOI 0.01, 72 h, viral RNA in supernatant by qRT-PCR (FIG. 3)

CCN(CC)C(=S)SSC(=S)N(CC)CC [disulfiram]
inhibition of replication of SARS-CoV-2: inhibit the replication of SARS-CoV-2
